Assay results: article PMC5874046, “Interaction of HuDA and PABP at 5'UTR of mouse insulin2 regulates insulin biosynthesis”
No constants are given. Whether binding was seen depends on the method and setting. Some entries that bind do so weakly or less than the wild type.

Sequences of proteins named here, by UniProt entry; tags and fusion partners are left off. A change or cut given only in a name is not applied to a line headed by its entry. A line that says so, or that is headed by a name, gives the form on record, which may keep a tag or linker.
UniProt P29341: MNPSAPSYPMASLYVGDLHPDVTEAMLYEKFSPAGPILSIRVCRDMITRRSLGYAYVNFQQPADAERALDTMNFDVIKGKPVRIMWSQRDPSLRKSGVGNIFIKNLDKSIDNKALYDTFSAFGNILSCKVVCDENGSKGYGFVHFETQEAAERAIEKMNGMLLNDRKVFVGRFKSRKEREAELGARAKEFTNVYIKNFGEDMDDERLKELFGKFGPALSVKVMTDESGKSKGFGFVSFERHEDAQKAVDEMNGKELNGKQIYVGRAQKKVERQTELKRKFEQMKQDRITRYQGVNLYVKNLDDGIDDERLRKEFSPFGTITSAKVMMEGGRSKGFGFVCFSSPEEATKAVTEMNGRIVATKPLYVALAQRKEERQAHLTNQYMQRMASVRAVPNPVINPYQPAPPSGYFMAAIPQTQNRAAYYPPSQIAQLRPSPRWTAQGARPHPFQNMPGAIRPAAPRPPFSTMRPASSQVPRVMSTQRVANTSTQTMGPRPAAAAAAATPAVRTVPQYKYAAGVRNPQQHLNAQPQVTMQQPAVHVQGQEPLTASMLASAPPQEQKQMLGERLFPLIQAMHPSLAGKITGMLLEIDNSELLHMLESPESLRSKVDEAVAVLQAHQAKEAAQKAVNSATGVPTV
UniProt Q61701: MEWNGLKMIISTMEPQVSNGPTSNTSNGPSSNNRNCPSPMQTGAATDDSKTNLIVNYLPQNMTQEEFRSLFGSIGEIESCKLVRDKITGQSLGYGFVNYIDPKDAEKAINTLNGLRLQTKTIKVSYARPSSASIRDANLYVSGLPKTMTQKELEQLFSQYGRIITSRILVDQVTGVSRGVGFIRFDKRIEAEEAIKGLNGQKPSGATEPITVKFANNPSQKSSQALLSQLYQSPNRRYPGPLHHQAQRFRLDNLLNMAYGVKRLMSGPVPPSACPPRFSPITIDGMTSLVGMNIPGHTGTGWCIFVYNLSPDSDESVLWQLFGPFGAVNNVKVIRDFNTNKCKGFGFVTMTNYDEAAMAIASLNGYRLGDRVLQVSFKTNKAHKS
GST-HuD B (Q61701-4, form named): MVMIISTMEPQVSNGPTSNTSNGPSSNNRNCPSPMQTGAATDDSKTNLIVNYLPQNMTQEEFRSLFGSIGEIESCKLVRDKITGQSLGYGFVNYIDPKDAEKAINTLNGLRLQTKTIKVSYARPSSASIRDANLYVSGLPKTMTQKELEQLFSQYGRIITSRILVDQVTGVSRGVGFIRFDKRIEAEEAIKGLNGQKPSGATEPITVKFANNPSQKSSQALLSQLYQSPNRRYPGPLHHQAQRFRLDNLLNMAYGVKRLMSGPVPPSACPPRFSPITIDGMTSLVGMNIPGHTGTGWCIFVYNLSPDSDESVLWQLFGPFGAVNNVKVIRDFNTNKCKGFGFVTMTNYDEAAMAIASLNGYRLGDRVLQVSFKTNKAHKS

Key:
[1] = target: His-PABP (recombinant poly-A-binding protein) (UniProt P29341); test: co-IP; purified recombinant His-PABP, His-HuD A and His-GFP (2 μg each) mixed with PDIΔC (Fig 7D right panel: without Ins2L 5'UTR RNA); IP with anti-PABP antibody; western blot; both purified
[2] = target: T1, GST-HuD B (mouse, UniProt Q61701-4 1-380); test: pull-down; GST pull-down: His-PABP incubated with GST or GST-HuD B, no RNA added; western blot; both purified
[3] = target: T1, GST-HuD B; test: pull-down; GST pull-down from a mixture of recombinant His-PABP, GST-HuD B and His-PDI or His-PDIΔC; western blot; both purified
[4] = target: His-HuD A (mouse, UniProt Q61701 1-385); test: co-IP; purified recombinant His-PABP, His-HuD A and His-GFP (2 μg each) mixed with PDIΔC, with or without long 5'UTR RNA (150 ng); IP with anti-HuD antibody; western blot; both purified

Row | binding [2] | binding [3] | binding [4] | Substance | binding [1]
1 | – | – | – | His-HuD A (from UniProt Q61701-1 1-385) | no binding (condition: in the presence of PDIΔC)
2 | binds | binds | binds | His-PABP (recombinant poly-A-binding protein) (from UniProt P29341 1-636) | –
